Results as given in patent US20240400604A1, “NUCLEOSIDE TRIPHOSPHATE PHOTOAFFINITY PROBE, METHOD FOR PREPARING SAME, AND APPLICATIONS THEREOF” (SHANDONG UNIVERSITY, priority 2023, published 2024).
Some of these results come from one statement about several compounds together.

Assay: Stability analysis of the probes under three pH conditions with HPLC
Format: physicochemical
Conditions: 0.4 mM probe, 37° C.
Experimental: Probes were incubated with 0.4 mM final concentration in different buffer at 37° C. for different time, and 10 μL of solution was taken out at each time point for HPLC analysis. A analytical column (Welch, Ultimate XB-C18, 5 μm, 4.6×250 mm) was used for the analysis, and untreated probes were used as controls. The mobile phase A was 50 mM […] (TEAA) buffer (pH=8), the mobile phase B was 50 mM TEAA in 30% ACN, the flow rate was 1 mL/min, the detection wavelength was 252 nm, and the column temperature was 30° C. Gradient elution conditions were as follows: 0-5 minutes, 5% B; 5-10 minutes, 5-30% B; 10-30 minutes, 30-40% B; 30-35 minutes, 40-100% B; 35-40 minutes, 100% B; 45-50 minutes, 5% B.

Row | SMILES | time stable (basic or neutral conditions (pH=12, pH=7.4)) [h] | time without degradation (stability) (three pH conditions (pH=3, 7.4, 12)) [h]
1 | C#CCCC1(CCNP(=O)(O)OP(=O)(O)OP(=O)(O)OC[C@H]2O[C@@H](n3cnc4c(=O)[nH]c(N)nc43)C(O)[C@H]2O)N=N1 (some centres unmarked) [GTP-N probe] | ≥ 24 | –
2 | C#CCCC1(CCOP(=O)(O)OP(=O)(O)OP(=O)(O)OC[C@H]2O[C@@H](n3cnc4c(=O)[nH]c(N)nc43)C(O)[C@H]2O)N=N1 (some centres unmarked) [GTP-O probe] | – | ≥ 24
